Test results reported in publication PMC11196586, “Molecular insight into interactions between the Taf14, Yng1 and Sas3 subunits of the NuA3 complex” (Nature Communications, 2024).
No constants are given. Whether binding was seen depends on the method and setting.

Amino acid sequences for entries named in this document (tags omitted). Residues count along the entry.
UniProt P35189, residues 1-137: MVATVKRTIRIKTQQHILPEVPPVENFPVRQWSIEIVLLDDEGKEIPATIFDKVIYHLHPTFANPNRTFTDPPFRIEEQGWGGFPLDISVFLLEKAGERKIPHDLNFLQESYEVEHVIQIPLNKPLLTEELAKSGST

Molecular target: Taf14 YEATS domain (aa 1-137) (S. cerevisiae) (UniProt P35189)
Test: NMR titration; 1H,15N HSQC of 0.05-0.2 mM 15N-labeled Taf14 proteins, 298 K, unlabeled peptide or Yng1EBM-PHD added; Tris-HCl or PBS, pH 6.6-7.5; apparent Kd from CSPs, 1:1 stoichiometry; both purified

- binding: no binding
B1: Yng1EBM peptide (aa 113-124 of Yng1), Ac-…-NH2 (peptide)
peptide: EPKLLLKINLKK
modifications: N-terminal acetyl (Ac-); C-terminal amide (-NH2)
